Measured values from PMC9854190.
These are yes or no findings as the source states them, for the method shown. In cells and extracts the contact can be indirect. Some binding calls cover weakened binding; strength is not graded here. Tags and fused reporters may be left off the sequences shown.

Protein sequences, listed by entry. Tags and fused reporters are not part of them. Lines headed by an entry give the natural chain unless they say otherwise; changes in a name come on top.
UniProt P49407: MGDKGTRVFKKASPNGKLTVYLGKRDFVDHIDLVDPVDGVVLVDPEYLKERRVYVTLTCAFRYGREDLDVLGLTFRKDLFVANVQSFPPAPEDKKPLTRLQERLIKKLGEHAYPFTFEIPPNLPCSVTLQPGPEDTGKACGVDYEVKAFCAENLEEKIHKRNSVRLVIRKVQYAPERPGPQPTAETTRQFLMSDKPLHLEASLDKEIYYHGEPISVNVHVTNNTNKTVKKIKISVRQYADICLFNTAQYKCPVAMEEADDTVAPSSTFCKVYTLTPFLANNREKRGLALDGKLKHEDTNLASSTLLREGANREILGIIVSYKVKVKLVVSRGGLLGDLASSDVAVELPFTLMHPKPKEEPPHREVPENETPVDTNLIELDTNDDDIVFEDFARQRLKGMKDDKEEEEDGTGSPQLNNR
UniProt P35462: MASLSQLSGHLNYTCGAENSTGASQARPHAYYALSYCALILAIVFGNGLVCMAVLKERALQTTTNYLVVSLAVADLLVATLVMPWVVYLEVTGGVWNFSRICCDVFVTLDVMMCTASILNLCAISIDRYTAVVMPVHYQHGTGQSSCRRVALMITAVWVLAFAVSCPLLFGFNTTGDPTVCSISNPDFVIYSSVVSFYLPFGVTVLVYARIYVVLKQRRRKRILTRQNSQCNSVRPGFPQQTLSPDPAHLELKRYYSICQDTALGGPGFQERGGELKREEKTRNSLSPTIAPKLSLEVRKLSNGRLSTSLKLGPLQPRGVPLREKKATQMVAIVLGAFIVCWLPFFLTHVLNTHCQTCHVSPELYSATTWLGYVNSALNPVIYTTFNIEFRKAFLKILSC

Legend:
[1] = biological target: FLAG-arrestin2 (UniProt P49407); assay: co-IP; HEK-293 cells expressing D3R, transfected; treated with vehicle, 30 nM DA or 100 nM quinpirole (once or washed and re-challenged, desensitization protocol); also Con-KD and Mdm2-KD cells; RIPA lysates, anti-M2 FLAG agarose beads overnight at 4 °C; co-IP blotted for HA or importin β1
[2] = biological target: FLAG-D3R (dopamine D3 receptor) (UniProt P35462); assay: as above

B1: HA-USP33 (ubiquitin-specific protease 33) (enzyme, UniProt Q8TEY7-2 1-911)
chain: MSAFRNHCPHLDSVGEITKEDLIQKSLGTCQDCKVQGPNLWACLENRCSYVGCGESQVDHSTIHSQETKHYLTVNLTTLRVWCYACSKEVFLDRKLGTQPSLPHVRQPHQIQENSVQDFKIPSNTTLKTPLVAVFDDLDIEADEEDELRARGLTGLKNIGNTCYMNAALQALSNCPPLTQFFLDCGGLARTDKKPAICKSYLKLMTELWHKSRPGSVVPTTLFQGIKTVNPTFRGYSQQDAQEFLRCLMDLLHEELKEQVMEVEEDPQTITTEETMEEDKSQSDVDFQSCESCSNSDRAENENGSRCFSEDNNETTMLIQDDENNSEMSKDWQKEKMCNKINKVNSEGEFDKDRDSISETVDLNNQETVKVQIHSRASEYITDVHSNDLSTPQILPSNEGVNPRLSASPPKSGNLWPGLAPPHKKAQSASPKRKKQHKKYRSVISDIFDGTIISSVQCLTCDRVSVTLETFQDLSLPIPGKEDLAKLHSSSHPTSIVKAGSCGEAYAPQGWIAFFMEYVKRFVVSCVPSWFWGPVVTLQDCLAAFFARDELKGDNMYSCEKCKKLRNGVKFCKVQNFPEILCIHLKRFRHELMFSTKISTHVSFPLEGLDLQPFLAKDSPAQIVTYDLLSVICHHGTASSGHYIAYCRNNLNNLWYEFDDQSVTEVSESTVQNAEAYVLFYRKSSEEAQKERRRISNLLNIMEPSLLQFYISRQWLNKFKTFAEPGPISNNDFLCIHGGVPPRKAGYIEDLVLMLPQNIWDNLYSRYGGGPAVNHLYICHTCQIEAEKIEKRRKTELEIFIRLNRAFQKEDSPATFYCISMQWFREWESFVKGKDGDPPGPIDNTKIAVTKCGNVMLRQGADSGQISEETWNFLQSIYGGGPEVILRPPVVHVDPDILQAEEKIEVETRSL
Question: Which binding [1] does the source give for B1 here?
Answer: binds

Question: And the binding [2]?
Answer: binds
